From PMC8615271
Results are given in words; binding and its absence hold for the method and conditions named.

Chains of the proteins cited; added tags and fusions are not shown. Residues count along the entry.
UniProt P02769, residues 25-607: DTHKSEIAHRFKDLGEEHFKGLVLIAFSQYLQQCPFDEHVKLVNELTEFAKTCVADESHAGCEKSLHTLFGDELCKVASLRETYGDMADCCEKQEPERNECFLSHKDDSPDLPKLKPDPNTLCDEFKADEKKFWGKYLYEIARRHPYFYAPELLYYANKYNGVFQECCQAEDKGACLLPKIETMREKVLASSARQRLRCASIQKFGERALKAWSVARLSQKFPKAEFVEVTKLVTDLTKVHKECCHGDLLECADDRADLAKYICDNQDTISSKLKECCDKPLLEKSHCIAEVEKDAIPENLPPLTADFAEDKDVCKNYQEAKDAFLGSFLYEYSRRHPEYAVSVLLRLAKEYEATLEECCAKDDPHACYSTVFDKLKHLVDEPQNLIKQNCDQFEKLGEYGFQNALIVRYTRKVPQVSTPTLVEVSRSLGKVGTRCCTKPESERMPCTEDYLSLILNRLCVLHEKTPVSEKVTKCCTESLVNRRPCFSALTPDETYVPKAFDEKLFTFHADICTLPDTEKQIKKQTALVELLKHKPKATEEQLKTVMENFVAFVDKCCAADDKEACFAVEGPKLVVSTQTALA

Molecular target: bovine serum albumin (bovine) (UniProt P02769)
Test: far-Western, overlay or dot blot; reduced purified prey proteins (from 40 µM stocks, 3 µL) dotted on nitrocellulose; blocked with 5% skim milk in TBST; incubated with 0.2 µM reduced P5 in 20 mM Tris-HCl pH 7.6, 150 mM NaCl, 0.05% Tween 20 at 4 °C for 3 h; bound P5 detected with anti-P5 antiserum; both purified

binding: no binding (tested: 0.2 μM)
B1: P5 (reduced form) (enzyme, UniProt Q15084 20-440)
chain: LYSSSDDVIELTPSNFNREVIQSDSLWLVEFYAPWCGHCQRLTPEWKKAATALKDVVKVGAVDADKHHSLGGQYGVQGFPTIKIFGSNKNRPEDYQGGRTGEAIVDAALSALRQLVKDRLGGRSGGYSSGKQGRSDSSSKKDVIELTDDSFDKNVLDSEDVWMVEFYAPWCGHCKNLEPEWAAAASEVKEQTKGKVKLAAVDATVNQVLASRYGIRGFPTIKIFQKGESPVDYDGGRTRSDIVSRALDLFSDNAPPPELLEIINEDIAKRTCEEHQLCVVAVLPHILDTGAAGRNSYLEVLLKLADKYKKKMWGWLWTEAGAQSELETALGIGGFGYPAMAAINARKMKFALLKGSFSEQGINEFLRELSFGRGSTAPVGGGAFPTIVEREPWDGRDGELPVEDDIDLSDVELDDLGKDEL
